These are yes or no findings as the source states them, for the method shown. In cells and extracts the contact can be indirect. Some results given as binding are weak or reduced against the parent protein; the word gives no strength.

Amino acid sequences for entries named in this document (tags omitted). Residues count along the entry.
UniProt P35222: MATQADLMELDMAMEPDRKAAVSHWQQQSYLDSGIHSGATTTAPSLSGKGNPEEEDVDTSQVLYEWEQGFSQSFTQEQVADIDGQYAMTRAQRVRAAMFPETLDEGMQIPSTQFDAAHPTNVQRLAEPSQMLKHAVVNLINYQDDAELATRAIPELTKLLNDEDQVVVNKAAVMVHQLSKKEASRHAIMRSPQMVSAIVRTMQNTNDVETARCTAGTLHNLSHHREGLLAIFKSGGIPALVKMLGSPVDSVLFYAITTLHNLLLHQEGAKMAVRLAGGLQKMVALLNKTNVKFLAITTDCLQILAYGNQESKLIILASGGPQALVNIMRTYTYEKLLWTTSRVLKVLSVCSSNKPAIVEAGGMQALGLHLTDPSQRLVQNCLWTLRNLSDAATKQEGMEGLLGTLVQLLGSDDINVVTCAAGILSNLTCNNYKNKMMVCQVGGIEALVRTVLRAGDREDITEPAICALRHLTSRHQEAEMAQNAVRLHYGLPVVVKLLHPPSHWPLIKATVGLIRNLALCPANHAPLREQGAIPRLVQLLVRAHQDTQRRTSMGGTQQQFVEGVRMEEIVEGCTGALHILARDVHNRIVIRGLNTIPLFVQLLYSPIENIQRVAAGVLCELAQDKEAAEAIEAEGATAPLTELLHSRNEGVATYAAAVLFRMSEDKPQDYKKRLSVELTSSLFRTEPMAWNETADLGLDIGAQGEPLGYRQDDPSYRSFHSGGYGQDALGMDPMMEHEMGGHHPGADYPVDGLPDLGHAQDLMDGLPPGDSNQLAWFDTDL
UniProt P78310, residues 20-365: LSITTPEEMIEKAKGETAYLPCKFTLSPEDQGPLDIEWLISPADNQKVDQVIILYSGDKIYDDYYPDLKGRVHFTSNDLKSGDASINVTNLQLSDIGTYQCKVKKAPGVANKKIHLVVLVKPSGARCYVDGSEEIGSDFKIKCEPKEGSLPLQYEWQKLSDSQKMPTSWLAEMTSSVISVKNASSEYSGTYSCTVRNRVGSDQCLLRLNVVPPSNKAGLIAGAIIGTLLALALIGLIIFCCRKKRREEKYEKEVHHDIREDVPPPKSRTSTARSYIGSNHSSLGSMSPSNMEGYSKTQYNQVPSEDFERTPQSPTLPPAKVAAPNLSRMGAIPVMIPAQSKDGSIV

This assay deals with β-catenin (human (endogenous in MCF7)) (UniProt P35222). Briefly: co-IP; β-catenin antibody (Santa Cruz) and protein A/G beads from RIPA lysates of MCF7 and FLCARMCF7 cells, 4°C; cells untreated or incubated with Ad5eGFP (9000 VP/cell) or FK (160 µg/ml) for 3 min, 10 min or 6 hours; control IgG; blots probed for E-cadherin and re-probed for CAR.

Regarding “full-length human CAR C-terminally tagged with monomeric red fluorescent protein (from UniProt P78310 20-365) (receptor)”, the binding entry is reported as “binds”.

The record behind these values is article PMC3151283.
